Results as given in PubChem BioAssay AID192 (DTP/NCI, 2004).
The list shows only some results of the screen, not a fair sample: it gathers some chemical classes. Other doses and runs of a compound may be missing. T/C is the treated group as % of the vehicle group. Where survival is the endpoint, the PubChem record calls one and a half times the control and up active, and a quarter to a half above the control has no call in these data; cut-offs in other NCI protocols can differ. Schedule codes are those of the source, taken here to give the interval after Q, in days (D) or hours (H), and the number of doses after X. Some T/C values are marked as having no survivor count here; that says nothing about deaths at the dose. Some entries hold several experiments; the values are given in rising order.

Tested on: BDF1 mice, B16 melanoma ip, median survival T/C
Assay: NCI In Vivo Anticancer Drug Screen. Data for tumor model B16 Melanoma (intraperitoneal) in B6D2F1 (BDF1) mice
Details: T/C endpoint: median survival time, higher T/C = longer survival
In short: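 Each result divides a survival or tumor-size measurement in the compound-treated group by the same measurement in the vehicle group.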

SMILES: CC(=O)OCC12CCC(C)=CC1OC1C(O)C(OC(C)=O)C2(C)C12CO2 (stereo not drawn)
- T/C (dose: 0.13 mg/kg/injection, schedule: Q01DX009 (ip), vehicle: distilled water + Tween-80): 121 % of control [survivor count not shown]
- T/C (dose: 0.13 mg/kg/injection, schedule: Q01DX009 (ip), vehicle: water): 120 % of control [survivor count not shown]
- T/C (dose: 0.25 mg/kg/injection, schedule: Q01DX009 (ip), vehicle: Klucel (hydroxypropylcellulose) (HPC)): 139 % of control [survivor count not shown]
- T/C (dose: 0.25 mg/kg/injection, schedule: Q01DX009 (ip), vehicle: distilled water + Tween-80): 114 % of control [survivor count not shown]
- T/C (dose: 0.25 mg/kg/injection, schedule: Q01DX009 (ip), vehicle: water, evaluated on day 45): 121 % of control [survivor count not shown]
- T/C (dose: 0.25 mg/kg/injection, schedule: Q01DX009 (ip), vehicle: water, evaluated on day 60): 129 % of control [survivor count not shown]
- T/C (dose: 0.5 mg/kg/injection, schedule: Q01DX009 (ip), vehicle: Klucel (hydroxypropylcellulose) (HPC)): 127 % of control [survivor count not shown]
- T/C (dose: 0.5 mg/kg/injection, schedule: Q01DX009 (ip), vehicle: distilled water + Tween-80): 133 % of control [survivor count not shown]
- T/C (dose: 0.5 mg/kg/injection, schedule: Q01DX009 (ip), vehicle: saline, evaluated on day 45): 125 % of control [survivor count not shown]
- T/C (dose: 0.5 mg/kg/injection, schedule: Q01DX009 (ip), vehicle: saline, evaluated on day 60): 133 [survivor count not shown] and 135 % of control [survivor count not shown]
- T/C (dose: 0.5 mg/kg/injection, schedule: Q01DX009 (ip), vehicle: water, evaluated on day 45): 131 [survivor count not shown] and 140 % of control [survivor count not shown]
- T/C (dose: 0.5 mg/kg/injection, schedule: Q01DX009 (ip), vehicle: water, evaluated on day 60): 135 % of control [survivor count not shown]
- T/C (dose: 1.0 mg/kg/injection, schedule: Q01DX009 (ip), vehicle: Klucel (hydroxypropylcellulose) (HPC)): 141 % of control [survivor count not shown]
- T/C (dose: 1.0 mg/kg/injection, schedule: Q01DX009 (ip), vehicle: distilled water + Tween-80): 130 % of control [survivor count not shown]
- T/C (dose: 1.0 mg/kg/injection, schedule: Q01DX009 (ip), vehicle: saline, evaluated on day 45): 118 % of control [survivor count not shown]
- T/C (dose: 1.0 mg/kg/injection, schedule: Q01DX009 (ip), vehicle: saline, evaluated on day 60): 126 [survivor count not shown], 134 [survivor count not shown], 138 % of control [survivor count not shown]
- T/C (dose: 1.0 mg/kg/injection, schedule: Q01DX009 (ip), vehicle: water, evaluated on day 45): 131 [survivor count not shown] and 140 % of control [survivor count not shown]
- T/C (dose: 1.0 mg/kg/injection, schedule: Q01DX009 (ip), vehicle: water, evaluated on day 60): 142 % of control [survivor count not shown]
- T/C (dose: 1.3 mg/kg/injection, schedule: Q04DX003 (sc), vehicle: saline + alcohol): 115 % of control [survivor count not shown]
- T/C (dose: 1.5 mg/kg/injection, schedule: Q04DX003 (ip), vehicle: other): 108 % of control [survivor count not shown]
- T/C (dose: 2.0 mg/kg/injection, schedule: Q01DX009 (ip), vehicle: Klucel (hydroxypropylcellulose) (HPC)): 140 % of control [survivor count not shown]
- T/C (dose: 2.0 mg/kg/injection, schedule: Q01DX009 (ip), vehicle: distilled water + Tween-80): 133 % of control [survivor count not shown]
- T/C (dose: 2.0 mg/kg/injection, schedule: Q01DX009 (ip), vehicle: saline, evaluated on day 45): 125 % of control [survivor count not shown]
- T/C (dose: 2.0 mg/kg/injection, schedule: Q01DX009 (ip), vehicle: saline, evaluated on day 60): 101 [survivor count not shown] and 135 % of control [survivor count not shown]
- T/C (dose: 2.0 mg/kg/injection, schedule: Q01DX009 (ip), vehicle: water, evaluated on day 45): 130 % of control [survivor count not shown]
- T/C (dose: 2.0 mg/kg/injection, schedule: Q01DX009 (ip), vehicle: water, evaluated on day 60): 138 % of control [survivor count not shown]
- T/C (dose: 2.16 mg/kg/injection, schedule: Q04DX003 (sc), vehicle: saline + alcohol): 125 % of control [survivor count not shown]
- T/C (dose: 2.59 mg/kg/injection, schedule: Q04DX003 (ip), vehicle: saline + alcohol): 115 % of control [survivor count not shown]
- T/C (dose: 3.0 mg/kg/injection, schedule: Q04DX003 (ip), vehicle: other): 107 % of control [survivor count not shown]
- T/C (dose: 3.6 mg/kg/injection, schedule: Q04DX003 (sc), vehicle: saline + alcohol): 120 % of control [survivor count not shown]
- T/C (dose: 4.0 mg/kg/injection, schedule: Q01DX009 (ip), vehicle: saline, evaluated on day 45): 118 % of control [survivor count not shown]
- T/C (dose: 4.0 mg/kg/injection, schedule: Q01DX009 (ip), vehicle: saline, evaluated on day 60): 119 [survivor count not shown] and 138 % of control [survivor count not shown]
- T/C (dose: 4.32 mg/kg/injection, schedule: Q04DX003 (ip), vehicle: saline + alcohol): 108 [survivor count not shown] and 125 % of control [survivor count not shown]
- T/C (dose: 6.0 mg/kg/injection, schedule: Q04DX003 (sc), vehicle: saline + alcohol): 111 % of control [survivor count not shown]
- T/C (dose: 7.2 mg/kg/injection, schedule: Q04DX003 (ip), vehicle: saline + alcohol): 115 % of control [survivor count not shown]
- T/C (dose: 12.0 mg/kg/injection, schedule: Q04DX003 (ip), vehicle: saline + alcohol): 108 % of control [survivor count not shown]

SMILES: CC1=CC2OC3C(OC(=O)CCl)C(OC(=O)CCl)C(C)(C2(COC(=O)CCl)CC1)C31CO1 (stereo not drawn)
- T/C (dose: 1.0 mg/kg/injection, schedule: Q01DX009 (ip), vehicle: water): 109 % of control [survivor count not shown]
- T/C (dose: 2.0 mg/kg/injection, schedule: Q01DX009 (ip), vehicle: water): 104 % of control [survivor count not shown]
- T/C (dose: 4.0 mg/kg/injection, schedule: Q01DX009 (ip), vehicle: water): 105 % of control [survivor count not shown]
- T/C (dose: 8.0 mg/kg/injection, schedule: Q01DX009 (ip), vehicle: water): 114 % of control [survivor count not shown]

SMILES: CC1=CC2OC3CC4OC(=O)/C=C/C=C/C(C(C)O)OCC/C(C)=C/C(=O)OCC2(CC1)C4(C)C31CO1 (stereo not drawn)
- T/C (dose: 0.39 mg/kg/injection, schedule: Q01DX009 (ip), vehicle: suspension in saline): 106 % of control [survivor count not shown]
- T/C (dose: 0.78 mg/kg/injection, schedule: Q01DX009 (ip), vehicle: saline with Tween-80): 141 [survivor count not shown] and 190 % of control [survivor count not shown]
- T/C (dose: 0.78 mg/kg/injection, schedule: Q01DX009 (ip), vehicle: suspension in saline): 126 % of control [survivor count not shown]
- T/C (dose: 1.56 mg/kg/injection, schedule: Q01DX009 (ip), vehicle: saline with Tween-80): 157 % of control [survivor count not shown]
- T/C (dose: 3.12 mg/kg/injection, schedule: Q01DX009 (ip), vehicle: saline with Tween-80): 269 % of control [survivor count not shown]
- T/C (dose: 3.12 mg/kg/injection, schedule: Q01DX009 (ip), vehicle: suspension in saline): 103 % of control [survivor count not shown]
- T/C (dose: 6.25 mg/kg/injection, schedule: Q01DX009 (ip), vehicle: suspension in saline): 126 % of control [survivor count not shown]

SMILES: CC1=C[C@H]2O[C@H]3[C@H](O)[C@@H](OC(=O)CCl)[C@](C)([C@@]2(COC(=O)CCl)CC1)[C@@]31CO1
- T/C (dose: 2.0 mg/kg/injection, schedule: Q01DX009 (ip), vehicle: saline + alcohol): 102 % of control [survivor count not shown]
- T/C (dose: 4.0 mg/kg/injection, schedule: Q01DX009 (ip), vehicle: saline + alcohol): 99 % of control [survivor count not shown]
- T/C (dose: 8.0 mg/kg/injection, schedule: Q01DX009 (ip), vehicle: saline + alcohol): 103 % of control [survivor count not shown]
- T/C (dose: 16.0 mg/kg/injection, schedule: Q01DX009 (ip), vehicle: saline + alcohol): 108 % of control [survivor count not shown]

SMILES: CC1=C[C@H]2O[C@@H]3[C@H](O)[C@@H](O)[C@](C)([C@@]2(CO)CC1)[C@@]31CO1
- T/C (dose: 0.5 mg/kg/injection, schedule: Q01DX009 (ip), vehicle: saline): 108 % of control [survivor count not shown]
- T/C (dose: 2.0 mg/kg/injection, schedule: Q01DX009 (ip), vehicle: saline): 107 % of control [survivor count not shown]
